Where two headings read alike, the source gives them in different places.
Tested on: T. gondii intracellular tachyzoites
Type: cell-based, Toxoplasma gondii RH-2F1
Protocol: Toxoplasma gondii RH-2F1 tachyzoites, which express β-galactosidase, were maintained in human foreskin fibroblasts (HFFs). HFFs were cultured in Dulbecco’s Modified Eagle Medium (DMEM) supplemented with 10% fetal bovine serum (FBS), 2 mM L-glutamine, and 40 μg/mL gentamicin (referred to as D10) and incubated at 37 °C in a 5% CO2 humidified atmosphere. For infection assays, confluent monolayers were maintained in DMEM with 2% FBS (D2) prior to parasite inoculation.
For in vitro assays in 96-well plates, HFFs were seeded at 5 × 10^3 cells/well in the D10 medium and incubated for 12–16 h to allow adherence. […] For antiparasitic assays, HFFs were infected with RH-2F1 tachyzoites at a multiplicity of infection (MOI) of 1:1 for 3 h.
Parasite proliferation was assessed by quantifying β-galactosidase activity, as previously described. Briefly, after the 72 h incubation, cells were lysed in 100 μL of lysis buffer (100 mM HEPES pH 7.5, 1 mM MgSO4, 0.1% Triton X-100, 5 mM DTT) for 15 min at room temperature. […] Following a 30 min incubation at 37 °C, absorbance was measured at 570 nm using a Varioskan LUX microplate reader (Thermo Scientific). Each assay included viability controls (untreated infected cells), solvent controls (1% DMSO), a positive control (1 μM pyrimethamine), and experimental blanks (no cells). All conditions were tested in two biological replicates in three independent experiments.
Compounds from the GHPB library were screened at a final concentration of 1 μM in infected HFF monolayers, using the β-galactosidase assay as a readout for parasite viability after 72 h.

[1] = selectivity index = CC50 (HFF)/EC50 (T. gondii)

Row | Structure (SMILES) | SI (ratio CC50 / EC50) | SI [1] | SI (selectivity index = CC50 (HFF)/EC50 (T. gondii), listed as Triflumuron)
1 | CCc1nc(N)nc(N)c1-c1ccc(Cl)cc1 [Pyrimethamine, reference compound] | > 131 | – | –
2 | O=C(NC(=O)c1ccccc1Cl)Nc1ccc(OC(F)(F)F)cc1 [MMV689404, Triflumuron] | – | > 103 | > 100
3 | O=C(Nc1ccc(Cl)c(C(F)(F)F)c1)Nc1ccc(Cl)c(C(F)(F)F)c1 [MMV027339] | – | 11 | –
4 | O=C(Nc1ncccc1O)c1ccc(S(=O)(=O)NCCc2cccs2)cc1 [MMV1435700] | – | 59 | –
5 | O=C(Nc1ncccc1O)c1ccc(N2CCOCC2)nc1 [MMV1103183] | – | >70 | –
6 | O=C(Nc1ncccc1O)c1ccc(Cn2cccn2)cc1 [MMV1266067] | – | >68 | –
7 | Cn1c(O)c(C(=O)Nc2ccc(Cl)c(Cl)c2)c(=O)n(C)c1=O [MMV1634081] | – | 59 | –
8 | CN(C)C1CC(NC(=O)c2ccc(Nc3nccc(-c4ccc(Cl)c(C(F)(F)F)c4)n3)cc2)C1 (stereo not drawn) [MMV884814] | – | 5 | –

Reference: publication PMC12290687, “Phenotypic Screening of the MMV Global Health Priority Box Identifies Selective Compounds with Anti-Toxoplasma gondii Activity” (ACS Omega, 2025)
